Where a sequence shows no end group, the ends are not given.

A short description of the series: general procedure: Fmoc solid-phase peptide synthesis; Fmoc Arg(PMC) HMP solid support resin (Bachem). The following applies: cyclisation step, overall, bicyclic, sequence written open.

Turning to CYCRRRFCVCVGRWL, the cyclisation yield entry runs as follows: (run 1) “about 10-20%”; (run 2) “about 30-45%”.

The values above are taken from patent US5916872A (IntraBiotics Pharmaceuticals, Inc., priority 1996, dated 1999).
